Experimental data from paper doi:10.1101/2024.10.20.619318.

What was measured:
[1] = target: T1, GST-Sec14L6 (human) (UniProt B5MCN3); experiment: pull-down
T1 sequence: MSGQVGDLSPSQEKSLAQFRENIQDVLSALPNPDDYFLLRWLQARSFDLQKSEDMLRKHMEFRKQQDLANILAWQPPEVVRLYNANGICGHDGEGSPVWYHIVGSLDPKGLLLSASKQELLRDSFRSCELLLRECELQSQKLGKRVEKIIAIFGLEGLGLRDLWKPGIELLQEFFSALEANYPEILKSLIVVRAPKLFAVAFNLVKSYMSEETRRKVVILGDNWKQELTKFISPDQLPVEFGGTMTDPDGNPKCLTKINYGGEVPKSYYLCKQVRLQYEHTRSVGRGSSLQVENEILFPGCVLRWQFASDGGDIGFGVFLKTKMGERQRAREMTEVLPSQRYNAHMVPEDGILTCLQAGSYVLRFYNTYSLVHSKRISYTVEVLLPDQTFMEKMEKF

[2] = target: T2, GFP-Sec14L6 (human) (UniProt B5MCN3); experiment: co-IP
T2 sequence: T1 sequence

Row | binding [1] | binding [2] | Substance
1 | binds | – | His-ACSL3-NT-ΔTM (human) (domain or fragment)
2 | binds | – | His-ACSL3-ΔTM (human) (domain or fragment)
3 | binds | – | His-PGRMC1-ΔTM (human) (domain or fragment)
4 | – | binds | the CT region of Sec14L6 (prey of GFP-Sec14L6 in Fig. S4B) (human) (domain or fragment)
5 | – | binds | the Carl-Trio domain of Sec14L6 (prey of GFP-Sec14L6 in Fig. S4B) (human) (domain or fragment)

These are yes or no findings as the source states them, for the method shown. Binding can be weak; no strength is given. Tags and fused reporters may be left off the sequences shown. For some assays here: In cells and extracts the contact can be indirect.
